# According to the supplement of paper PMC6411743:
# By UniProt entry, the sequences of proteins in these tests, tags left out. Where a name states a change or a piece, a line headed by the entry shows the natural chain unless it says otherwise.
# UniProt Q9UIG0: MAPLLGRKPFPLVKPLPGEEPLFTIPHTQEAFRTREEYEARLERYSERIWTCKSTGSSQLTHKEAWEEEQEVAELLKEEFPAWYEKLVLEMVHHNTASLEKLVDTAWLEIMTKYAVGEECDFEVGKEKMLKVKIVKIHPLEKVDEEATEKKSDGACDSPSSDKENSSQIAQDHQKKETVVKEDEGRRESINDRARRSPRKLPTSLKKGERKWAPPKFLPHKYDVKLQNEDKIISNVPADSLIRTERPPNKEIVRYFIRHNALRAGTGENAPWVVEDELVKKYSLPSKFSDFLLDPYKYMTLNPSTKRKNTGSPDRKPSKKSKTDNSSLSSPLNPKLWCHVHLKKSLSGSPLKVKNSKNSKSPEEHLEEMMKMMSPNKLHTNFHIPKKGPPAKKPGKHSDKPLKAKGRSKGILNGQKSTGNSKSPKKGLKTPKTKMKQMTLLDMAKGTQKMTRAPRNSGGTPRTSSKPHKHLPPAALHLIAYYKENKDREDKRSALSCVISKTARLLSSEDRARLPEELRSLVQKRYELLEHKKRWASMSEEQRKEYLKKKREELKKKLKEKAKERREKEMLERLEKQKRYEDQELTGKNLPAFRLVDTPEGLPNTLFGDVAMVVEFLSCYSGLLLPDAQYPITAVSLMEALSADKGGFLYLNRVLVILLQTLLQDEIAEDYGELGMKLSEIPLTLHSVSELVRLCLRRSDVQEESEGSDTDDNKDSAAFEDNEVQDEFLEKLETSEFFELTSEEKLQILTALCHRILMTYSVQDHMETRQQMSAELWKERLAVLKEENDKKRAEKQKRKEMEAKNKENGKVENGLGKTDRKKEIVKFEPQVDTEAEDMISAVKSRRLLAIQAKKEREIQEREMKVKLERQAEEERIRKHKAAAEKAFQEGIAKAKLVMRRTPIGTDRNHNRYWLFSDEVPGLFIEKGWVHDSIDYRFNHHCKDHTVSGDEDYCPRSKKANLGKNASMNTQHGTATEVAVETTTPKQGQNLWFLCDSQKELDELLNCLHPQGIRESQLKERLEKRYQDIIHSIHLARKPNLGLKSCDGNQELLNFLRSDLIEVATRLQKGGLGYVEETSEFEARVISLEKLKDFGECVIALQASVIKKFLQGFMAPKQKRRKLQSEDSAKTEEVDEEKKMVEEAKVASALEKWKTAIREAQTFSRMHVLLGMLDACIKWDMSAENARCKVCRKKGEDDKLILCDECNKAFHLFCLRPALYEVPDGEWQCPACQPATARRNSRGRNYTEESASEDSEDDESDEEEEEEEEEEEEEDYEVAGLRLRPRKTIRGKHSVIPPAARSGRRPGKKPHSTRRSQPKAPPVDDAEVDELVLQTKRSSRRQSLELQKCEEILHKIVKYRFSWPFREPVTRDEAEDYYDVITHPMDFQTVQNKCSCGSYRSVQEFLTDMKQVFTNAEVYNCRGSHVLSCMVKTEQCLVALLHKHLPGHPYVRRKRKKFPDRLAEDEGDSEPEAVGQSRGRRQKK
# UniProt Q9P287, whole entry: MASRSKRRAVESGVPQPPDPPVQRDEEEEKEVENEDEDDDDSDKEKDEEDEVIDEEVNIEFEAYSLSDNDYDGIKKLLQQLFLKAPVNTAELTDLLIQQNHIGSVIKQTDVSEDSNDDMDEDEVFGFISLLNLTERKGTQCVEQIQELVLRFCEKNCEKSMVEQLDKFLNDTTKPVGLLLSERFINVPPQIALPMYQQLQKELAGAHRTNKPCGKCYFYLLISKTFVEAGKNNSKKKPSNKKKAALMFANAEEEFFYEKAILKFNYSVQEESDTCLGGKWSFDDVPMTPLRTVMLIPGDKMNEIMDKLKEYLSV
# UniProt Q9UM21: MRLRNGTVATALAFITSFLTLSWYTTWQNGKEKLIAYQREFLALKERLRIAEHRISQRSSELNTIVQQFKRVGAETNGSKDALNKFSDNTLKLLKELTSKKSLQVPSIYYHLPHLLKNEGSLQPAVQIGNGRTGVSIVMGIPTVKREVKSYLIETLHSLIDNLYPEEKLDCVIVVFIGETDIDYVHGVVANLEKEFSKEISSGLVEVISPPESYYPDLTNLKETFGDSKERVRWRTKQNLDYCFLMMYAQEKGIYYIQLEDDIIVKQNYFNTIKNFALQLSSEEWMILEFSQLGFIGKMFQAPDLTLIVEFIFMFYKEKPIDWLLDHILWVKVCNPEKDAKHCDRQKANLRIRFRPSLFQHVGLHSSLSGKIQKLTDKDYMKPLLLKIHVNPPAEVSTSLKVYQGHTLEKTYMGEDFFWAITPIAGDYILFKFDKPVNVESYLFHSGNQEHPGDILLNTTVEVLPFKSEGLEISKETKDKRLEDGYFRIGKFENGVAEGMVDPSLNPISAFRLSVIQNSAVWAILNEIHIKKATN
# UniProt Q9UIJ7: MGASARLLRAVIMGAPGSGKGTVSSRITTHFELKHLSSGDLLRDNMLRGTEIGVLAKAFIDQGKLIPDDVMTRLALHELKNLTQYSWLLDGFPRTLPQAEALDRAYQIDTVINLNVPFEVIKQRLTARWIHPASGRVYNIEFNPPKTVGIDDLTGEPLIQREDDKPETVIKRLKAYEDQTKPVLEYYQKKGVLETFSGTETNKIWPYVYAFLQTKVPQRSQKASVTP
# UniProt Q9UNP9: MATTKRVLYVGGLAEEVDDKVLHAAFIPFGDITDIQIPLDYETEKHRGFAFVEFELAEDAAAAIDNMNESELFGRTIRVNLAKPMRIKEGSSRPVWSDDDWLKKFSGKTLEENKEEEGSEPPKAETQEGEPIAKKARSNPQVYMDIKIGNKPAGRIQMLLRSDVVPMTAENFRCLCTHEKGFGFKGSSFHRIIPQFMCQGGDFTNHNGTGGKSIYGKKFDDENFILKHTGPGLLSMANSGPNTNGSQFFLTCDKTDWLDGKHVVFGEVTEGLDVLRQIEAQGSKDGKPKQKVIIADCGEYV
# UniProt Q9UJZ1: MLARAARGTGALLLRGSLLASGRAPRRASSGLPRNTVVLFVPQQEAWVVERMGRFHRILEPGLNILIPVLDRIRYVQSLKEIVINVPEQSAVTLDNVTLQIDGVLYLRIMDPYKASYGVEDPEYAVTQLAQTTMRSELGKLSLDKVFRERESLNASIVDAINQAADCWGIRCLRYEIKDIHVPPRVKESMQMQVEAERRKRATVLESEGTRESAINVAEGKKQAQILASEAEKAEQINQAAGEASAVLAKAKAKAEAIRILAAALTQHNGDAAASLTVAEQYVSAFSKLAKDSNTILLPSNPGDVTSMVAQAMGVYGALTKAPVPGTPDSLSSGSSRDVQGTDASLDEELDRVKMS
# UniProt Q9Y295: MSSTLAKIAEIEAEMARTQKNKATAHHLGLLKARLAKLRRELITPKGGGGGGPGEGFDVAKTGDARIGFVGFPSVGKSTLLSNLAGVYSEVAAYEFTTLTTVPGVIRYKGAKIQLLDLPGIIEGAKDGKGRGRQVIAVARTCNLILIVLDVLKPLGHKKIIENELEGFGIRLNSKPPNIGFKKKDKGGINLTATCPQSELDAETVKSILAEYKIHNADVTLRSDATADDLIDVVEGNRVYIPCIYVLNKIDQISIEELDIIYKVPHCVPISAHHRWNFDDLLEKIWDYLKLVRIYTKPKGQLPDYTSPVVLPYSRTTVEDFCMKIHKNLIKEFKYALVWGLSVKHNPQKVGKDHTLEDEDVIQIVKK
# UniProt Q9UGP4: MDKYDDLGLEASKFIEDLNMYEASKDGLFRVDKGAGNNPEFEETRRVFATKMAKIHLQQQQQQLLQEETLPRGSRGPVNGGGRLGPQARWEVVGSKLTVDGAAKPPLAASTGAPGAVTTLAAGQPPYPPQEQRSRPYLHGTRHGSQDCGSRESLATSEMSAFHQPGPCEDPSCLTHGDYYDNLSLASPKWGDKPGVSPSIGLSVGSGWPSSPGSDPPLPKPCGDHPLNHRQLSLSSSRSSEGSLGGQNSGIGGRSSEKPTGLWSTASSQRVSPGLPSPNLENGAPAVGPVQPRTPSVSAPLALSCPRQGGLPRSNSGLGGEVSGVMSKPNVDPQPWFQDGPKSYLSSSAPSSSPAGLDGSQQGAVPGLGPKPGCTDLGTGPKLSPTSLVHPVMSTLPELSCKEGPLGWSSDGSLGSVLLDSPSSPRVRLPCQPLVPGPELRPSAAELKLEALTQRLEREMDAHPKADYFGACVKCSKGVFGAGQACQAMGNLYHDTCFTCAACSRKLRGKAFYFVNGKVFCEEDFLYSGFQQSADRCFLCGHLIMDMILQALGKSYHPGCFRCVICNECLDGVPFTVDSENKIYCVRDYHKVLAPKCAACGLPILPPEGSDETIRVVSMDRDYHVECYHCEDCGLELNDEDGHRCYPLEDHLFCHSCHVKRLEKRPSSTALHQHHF
# UniProt Q9UDY8: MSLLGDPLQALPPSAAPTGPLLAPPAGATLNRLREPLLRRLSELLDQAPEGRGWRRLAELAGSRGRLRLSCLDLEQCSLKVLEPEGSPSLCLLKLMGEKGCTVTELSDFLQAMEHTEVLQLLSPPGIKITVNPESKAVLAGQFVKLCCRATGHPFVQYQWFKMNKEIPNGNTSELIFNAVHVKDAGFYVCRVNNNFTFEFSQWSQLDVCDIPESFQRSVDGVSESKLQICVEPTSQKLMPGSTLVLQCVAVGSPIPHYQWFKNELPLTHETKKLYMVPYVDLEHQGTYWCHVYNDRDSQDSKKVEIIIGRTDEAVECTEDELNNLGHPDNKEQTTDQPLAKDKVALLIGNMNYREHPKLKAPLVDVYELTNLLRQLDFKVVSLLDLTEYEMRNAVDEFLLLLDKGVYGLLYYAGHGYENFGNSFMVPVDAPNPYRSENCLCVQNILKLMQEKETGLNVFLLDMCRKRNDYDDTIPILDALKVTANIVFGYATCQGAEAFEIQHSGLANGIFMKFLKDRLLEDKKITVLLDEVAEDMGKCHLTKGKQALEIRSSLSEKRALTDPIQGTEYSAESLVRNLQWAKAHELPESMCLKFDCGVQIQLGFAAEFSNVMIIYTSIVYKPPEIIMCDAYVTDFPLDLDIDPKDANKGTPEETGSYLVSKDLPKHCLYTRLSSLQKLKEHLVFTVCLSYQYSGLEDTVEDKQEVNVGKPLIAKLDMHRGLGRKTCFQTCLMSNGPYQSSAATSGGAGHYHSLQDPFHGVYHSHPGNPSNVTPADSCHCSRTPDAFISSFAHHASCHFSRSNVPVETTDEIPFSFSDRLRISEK
# UniProt Q9UHD9, whole entry: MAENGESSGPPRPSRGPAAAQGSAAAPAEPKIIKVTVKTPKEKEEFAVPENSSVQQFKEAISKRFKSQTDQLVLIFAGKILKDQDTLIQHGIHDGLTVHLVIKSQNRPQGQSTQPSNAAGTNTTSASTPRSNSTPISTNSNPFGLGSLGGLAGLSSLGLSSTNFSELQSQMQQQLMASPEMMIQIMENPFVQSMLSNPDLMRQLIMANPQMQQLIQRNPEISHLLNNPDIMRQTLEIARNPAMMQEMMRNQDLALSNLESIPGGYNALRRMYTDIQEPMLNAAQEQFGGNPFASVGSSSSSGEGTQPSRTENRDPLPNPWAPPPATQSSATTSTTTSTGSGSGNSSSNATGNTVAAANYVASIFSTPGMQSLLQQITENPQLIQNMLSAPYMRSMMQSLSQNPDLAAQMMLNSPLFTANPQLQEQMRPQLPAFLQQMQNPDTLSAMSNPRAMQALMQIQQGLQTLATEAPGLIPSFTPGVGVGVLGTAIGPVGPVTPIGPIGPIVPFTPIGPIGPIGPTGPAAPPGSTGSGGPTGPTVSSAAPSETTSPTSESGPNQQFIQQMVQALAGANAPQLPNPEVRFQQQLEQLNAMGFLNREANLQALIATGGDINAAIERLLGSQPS
# UniProt Q9UKY1: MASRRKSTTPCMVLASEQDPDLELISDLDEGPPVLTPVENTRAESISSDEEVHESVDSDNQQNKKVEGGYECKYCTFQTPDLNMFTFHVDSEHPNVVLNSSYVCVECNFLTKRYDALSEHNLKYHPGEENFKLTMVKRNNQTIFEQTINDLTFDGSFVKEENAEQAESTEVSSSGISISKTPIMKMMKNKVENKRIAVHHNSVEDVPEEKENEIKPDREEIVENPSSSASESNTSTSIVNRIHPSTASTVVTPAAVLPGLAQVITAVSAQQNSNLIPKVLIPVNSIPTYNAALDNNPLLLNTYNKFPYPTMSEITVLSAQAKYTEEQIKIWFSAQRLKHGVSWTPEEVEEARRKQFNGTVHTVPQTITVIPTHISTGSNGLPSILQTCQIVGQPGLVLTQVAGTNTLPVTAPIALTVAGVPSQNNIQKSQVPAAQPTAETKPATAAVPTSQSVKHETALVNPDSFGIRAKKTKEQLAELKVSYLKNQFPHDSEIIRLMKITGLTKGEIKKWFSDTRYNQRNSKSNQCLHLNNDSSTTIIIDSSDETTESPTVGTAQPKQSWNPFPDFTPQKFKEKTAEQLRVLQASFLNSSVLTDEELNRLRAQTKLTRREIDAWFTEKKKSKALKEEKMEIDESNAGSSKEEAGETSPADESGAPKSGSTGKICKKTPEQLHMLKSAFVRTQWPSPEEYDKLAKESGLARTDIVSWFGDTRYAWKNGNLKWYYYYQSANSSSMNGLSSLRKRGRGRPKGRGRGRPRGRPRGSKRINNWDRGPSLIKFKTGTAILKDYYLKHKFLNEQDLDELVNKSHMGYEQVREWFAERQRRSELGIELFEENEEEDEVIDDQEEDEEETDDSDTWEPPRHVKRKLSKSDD
# ± gives the standard deviation of the averaged measurements. The entries are a selection whose mix differs from that of the whole data set.
# Compound: Nc1ncnc2c1ncn2[C@@H]1O[C@H](COP(=O)(O)OP(=O)(O)OP(=O)(O)O)[C@@H](O)[C@H]1O [adenosine triphosphate]
# Test: NP40-soluble protein abundance relative to vehicle (solubility fold change) (ratio); higher = more soluble protein in presence of ATP
# Details: concentration: 10mM
# Outline: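 Values are fold changes against the detergent-processed vehicle, based on vsn-normalised intensities. Jurkat crude lysate was treated at eight concentrations from 0.1 to 10 mM (10 min at room temperature, then 3 min at 37 °C), solubilised with 0.8% NP40 and benzonase, ultracentrifuged and analysed by TMT-labelled LC-MS/MS over three independent experiments.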
row,Target,NP40-soluble protein abundance
1,UniProt Q9UJV9 and related entries,1.52 ± 0.16
2,UniProt Q9UBC3 and related entries,1.61 ± 0.17
3,POLK (UniProt Q9UBT6),1.02 ± 0.062
4,UniProt Q9UEE5,1.18 ± 0.06
5,CYB5R1 (UniProt Q9UHQ9),0.992 ± 0.072
6,MKLN1 (UniProt Q9UL63),0.932 ± 0.028
7,UniProt Q9UQC2 and related entries,0.891 ± 0.029
8,UniProt Q9UPZ3 and related entries,1.04 ± 0.069
9,UniProt Q9UQ13 and related entries,0.924 ± 0.043
10,UniProt Q9UIG0 and related entries,1.39 ± 0.049
11,UniProt Q9P287 and related entries,0.979 ± 0.042
12,SEL1L (UniProt Q9UBV2),0.949 ± 0.01
13,UniProt Q9UNS1 and related entries,0.975 ± 0.025
14,UniProt Q9UM21,1.02 ± 0.065
15,UniProt Q9UGR2 and related entries,1.06 ± 0.025
16,USP24 (UniProt Q9UPU5),0.971 ± 0.027
17,UniProt Q9UNZ2 and related entries,0.929 ± 0.011
18,UniProt Q9UJK0,0.93 ± 0.014
19,AK3 (UniProt Q9UIJ7),0.879 ± 0.045

row,Target,NP40-soluble protein abundance
1,PPIE (UniProt Q9UNP9),0.986 ± 0.015
2,UniProt Q9P2N6-3,1.2 ± 0.14
3,STOML2 (UniProt Q9UJZ1),0.921 ± 0.055
4,UniProt Q9UQ84 and related entries,1.08 ± 0.019
5,DRG1 (UniProt Q9Y295),0.961 ± 0.024
6,TPX2 (UniProt Q9ULW0),1.37 ± 0.054
7,UniProt Q9UJ83 and related entries,0.959 ± 0.039
8,UniProt Q9UGP4 and related entries,0.957 ± 0.025
9,UniProt Q9ULH0 and related entries,1.09 ± 0.04
10,UniProt Q9UDY8 and related entries,1.02 ± 0.032
11,UniProt Q9UHC7 and related entries,0.954 ± 0.068
12,GRHPR (UniProt Q9UBQ7),0.965 ± 0.052
13,MINPP1 (UniProt Q9UNW1),0.933 ± 0.023
14,UBQLN2 (UniProt Q9UHD9),0.762 ± 0.084
15,ZHX1 (UniProt Q9UKY1),1.14 ± 0.23
16,UniProt Q9UJX6 and related entries,0.998 ± 0.06
17,UniProt Q9UPW0 and related entries,0.864 ± 0.063
18,SAE1 (UniProt Q9UBE0),0.958 ± 0.037

# Another view of some results above.
row | Target | NP40-soluble protein abundance
2 | UniProt Q9P2N6-3 | 1.2 ± 0.14
11 | UniProt Q9UHC7 and related entries | 0.954 ± 0.068
